# Measurements from the supplement of paper PMC9844399.
# For some assays here: The hits were mostly taken out for another list; the other results follow. For some assays here: This list holds what a sample rich in lowest values left over.
# What was measured:
# HeLa [1] = assay: nuclear count per well, robust Z-score vs DMSO; higher = more cells (less toxicity); details: 10 µM; 6 h
# HeLa [2] = assay: MALAT1 nuclear FISH intensity, robust Z-score vs DMSO; higher = more nuclear MALAT1 lncRNA, active = -3 or less; details: 10 µM; 6 h
# 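Wherever MALAT1 nuclear FISH intensity, robust Z-score vs DMSO is given: High-content confocal imaging of branched-DNA amplified FISH in 384-well plates, Hoechst-defined nuclei, score is well value minus plate DMSO median over DMSO robust SD, four wells per compound.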
# 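Wherever nuclear count per well, robust Z-score vs DMSO is given: Hoechst-stained nuclei counted by automated confocal imaging of four fields per well in 384-well plates, with the robust Z-score based on the per-plate DMSO median and robust SD.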
compound,measurement,setting,value
Cc1c(C(=O)NN2CCCCC2)nn(-c2ccc(Cl)cc2Cl)c1-c1ccc(I)cc1,nuclear count per well,HeLa [1],0.413
same,MALAT1 nuclear FISH intensity,HeLa [2],inactive: -0.0855
